Measured data: PubChem BioAssay AID504808 (Drosophila RNAi Screening Center, 2011)

- Aim: 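Fly genes required to hold E2F transcription in check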 (primary screen)
- Cell system: Drosophila S2 cells
- Reagents: long dsRNA against Drosophila genes
- Measured: 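Firefly luciferase driven by E2F sites, normalised to Renilla luciferase on the same minimal promoter, measured by plate reader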
- Direction: E2F firefly: higher = more E2F reporter activity; Renilla normaliser: higher = more normaliser reporter signal
- Rule for the call: 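a knock-down counted as active when the firefly/Renilla E2F signal rose above 50%, a threshold chosen arbitrarily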
The screen tested about 21,000 reagents; below is a random part of those that have a named target and a result. In the full data, 18 (0.084%) were called active. 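Raw counts without plate normalisation, one of two replicates; the ratio scores behind the calls were not deposited.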 A plus sign joins genes that one reagent is predicted to hit. Not stated in the record: the amount of reagent, the time to read-out.

target	amplicon	E2F firefly, rep 1	Renilla normaliser, rep 1	outcome
Ufsp2 (GeneID 39687)	DRSC10231	69923	3868	inactive
Ppt2 (GeneID 34564)	DRSC02786	95607	3657	inactive
CG7706 (GeneID 42244)	DRSC16295	72074	3257	inactive
Pfk (GeneID 36060)	DRSC07506	2545	216	inactive
CG33702 (GeneID 3771932)	DRSC08986	1.27e5	4477	inactive
CstF50 (GeneID 43734)	DRSC15434	1969	992	inactive
PyK (GeneID 42620)	DRSC16806	1.49e5	8066	inactive
Cyp6a17 (GeneID 45556)	DRSC07378	102	37	inactive
Cubn (GeneID 326235)	DRSC18256	7571	860	inactive
CG34193 (GeneID 5740572)	DRSC05665	1.64e5	7563	inactive
Cyp6u1 (GeneID 35608)	DRSC05015	79488	3538	inactive
Coq2 (GeneID 40988)	DRSC16516	1.32e5	5886	inactive
CG7646 (GeneID 40187)	DRSC11232	1.30e5	5842	inactive
CG32432 (GeneID 40310)	DRSC11703	67158	4751	inactive
CG32432 (GeneID 40310)	DRSC11704	85694	5906	inactive
CG32432 (GeneID 40310)	DRSC11744	1.36e5	8043	inactive
ClpX (GeneID 42369)	DRSC15592	75753	5538	inactive
Or13a (GeneID 32562)	DRSC20265	2.35e5	6864	inactive
ckd (GeneID 38402)	DRSC08418	99501	4739	inactive
CG34199 (GeneID 5740128)	DRSC05867	1.71e5	7260	inactive
Mlf (GeneID 36750)	DRSC07472	1.24e5	5173	inactive
row (GeneID 36685)	DRSC07076	63474	3004	inactive
row (GeneID 36685)	DRSC07077	1.11e5	4555	inactive
wrapper (GeneID 37555)	DRSC04723	94193	4194	inactive
Fum3 (GeneID 39281)	DRSC10592	1.19e5	6771	inactive
CG5139 (GeneID 33309)	DRSC00681	1.72e5	6145	inactive
Obp44a (GeneID 35789)	DRSC06838	1.31e5	4342	inactive
ND-51L1 (GeneID 36998)	DRSC06072	1.26e5	4951	inactive
ppan (GeneID 42502)	DRSC17030	1.01e5	6353	inactive
lectin-46Cb (GeneID 53522)	DRSC06611	1.40e5	4469	inactive
CG3527 (GeneID 31387)	DRSC18307	39690	3357	inactive
GstD8 (GeneID 48341)	DRSC16689	1.43e5	6215	inactive
CG4017 (GeneID 34296)	DRSC02733	1.46e5	5068	inactive
CG12438 (GeneID 34202)	DRSC02167	1.36e5	4760	inactive
CG13930 (GeneID 38210)	DRSC08399	82726	3894	inactive
Cpr47Ef (GeneID 36194)	DRSC06336	98279	3810	inactive
gammaSnap2 (GeneID 41239)	DRSC15992	1.48e5	7474	inactive
mex1 (GeneID 39677)	DRSC11368	1.56e5	6757	inactive
CarT (GeneID 35334)	DRSC03196	75063	3565	inactive
Usp15-31 (GeneID 37954)	DRSC04426	85626	3147	inactive
Usp15-31 (GeneID 37954)	DRSC04532	96455	4179	inactive
CG2100 (GeneID 40707)	DRSC12303	82586	3497	inactive
CG43740 (GeneID 31962)	DRSC17994	69675	5614	inactive
CycT (GeneID 39961)	DRSC11124	37049	2944	inactive
amd (GeneID 35188)	DRSC02608	90904	3890	inactive
amd (GeneID 35188)	DRSC03483	97402	4009	inactive
CG6901 (GeneID 41977)	DRSC16129	1.09e5	6157	inactive
holn1 (GeneID 34432)	DRSC02827	81349	3670	inactive
CG12746 (GeneID 40672)	DRSC12218	65245	3539	inactive
Ir52d (GeneID 36716)	DRSC06264	94848	3928	inactive
CG5756 (GeneID 37064)	DRSC06950	1.44e5	5191	inactive
CG4593 (GeneID 31649)	DRSC18374	1.11e5	6028	inactive
PolI (GeneID 40965)	DRSC16267	1.34e5	5836	inactive
CG6000 (GeneID 42851)	DRSC15938	1.16e5	5613	inactive
CG17198 + CG17197	DRSC15190	1.08e5	5762	inactive
CG17198 + CG17197	DRSC15191	1.15e5	6154	inactive
shn (GeneID 36171)	DRSC05266	1.27e5	5120	inactive
shn (GeneID 36171)	DRSC07681	2596	202	inactive
CecA2 (GeneID 43597)	DRSC16604	1.17e5	6171	inactive
CG11350 (GeneID 38554)	DRSC08181	81283	3715	inactive
CG15563 (GeneID 43695)	DRSC15101	1.11e5	5541	inactive
CG31125 (GeneID 318599)	DRSC13684	81891	2707	inactive
Bacc (GeneID 33462)	DRSC00735	1.62e5	6237	inactive
alien + CG17906	DRSC02641	1.67e5	5213	inactive
Pi3K92E (GeneID 42446)	DRSC16788	64033	3084	inactive
Rpe (GeneID 35692)	DRSC06407	3036	177	inactive
CG11668 (GeneID 41606)	DRSC14341	1.11e5	6012	inactive
rswl (GeneID 37124)	DRSC06923	60042	3257	inactive
Rpt3 (GeneID 32047)	DRSC20283	67996	6539	inactive
spo (GeneID 38631)	DRSC11127	87653	4208	inactive
CG33791 + CG18170	DRSC08523	94253	4057	inactive
CG33791 + CG18170	DRSC08601	91958	3921	inactive
CG13312 (GeneID 39010)	DRSC09983	94473	3912	inactive
CG1946 (GeneID 35720)	DRSC06804	1.55e5	5065	inactive
CG1441 (GeneID 36029)	DRSC06448	2832	209	inactive
Ccdc58 (GeneID 40159)	DRSC10218	78755	3589	inactive
RAF2 (GeneID 39821)	DRSC10443	83357	3603	inactive
RAF2 (GeneID 39821)	DRSC10454	1.59e5	7498	inactive
Lsp1beta (GeneID 33274)	DRSC00757	72700	3466	inactive
CG13058 (GeneID 39806)	DRSC09941	1.70e5	6967	inactive
BomT2 (GeneID 50208)	DRSC06631	1.40e5	5011	inactive
Sgs5 (GeneID 42114)	DRSC16862	1.14e5	5948	inactive
muskelin (GeneID 36386)	DRSC07273	88743	3945	inactive
Dgk (GeneID 35738)	DRSC05064	1.23e5	4941	inactive
Dgk (GeneID 35738)	DRSC05065	1.41e5	6695	inactive
Dgk (GeneID 35738)	DRSC06171	1.29e5	4197	inactive
Dgk (GeneID 35738)	DRSC06782	1.55e5	4950	inactive

Targets above whose target name begins with L or l (2):
target	amplicon	E2F firefly, rep 1	Renilla normaliser, rep 1	outcome
lectin-46Cb (GeneID 53522)	DRSC06611	1.40e5	4469	inactive
Lsp1beta (GeneID 33274)	DRSC00757	72700	3466	inactive
